Assay results: publication doi:10.1101/2019.12.31.889139

Protein sequences, listed by entry. Tags and fused reporters are not part of them. Lines headed by an entry give the natural chain unless they say otherwise; changes in a name come on top. Residues count along the entry.
UniProt P05067, residues 18-770: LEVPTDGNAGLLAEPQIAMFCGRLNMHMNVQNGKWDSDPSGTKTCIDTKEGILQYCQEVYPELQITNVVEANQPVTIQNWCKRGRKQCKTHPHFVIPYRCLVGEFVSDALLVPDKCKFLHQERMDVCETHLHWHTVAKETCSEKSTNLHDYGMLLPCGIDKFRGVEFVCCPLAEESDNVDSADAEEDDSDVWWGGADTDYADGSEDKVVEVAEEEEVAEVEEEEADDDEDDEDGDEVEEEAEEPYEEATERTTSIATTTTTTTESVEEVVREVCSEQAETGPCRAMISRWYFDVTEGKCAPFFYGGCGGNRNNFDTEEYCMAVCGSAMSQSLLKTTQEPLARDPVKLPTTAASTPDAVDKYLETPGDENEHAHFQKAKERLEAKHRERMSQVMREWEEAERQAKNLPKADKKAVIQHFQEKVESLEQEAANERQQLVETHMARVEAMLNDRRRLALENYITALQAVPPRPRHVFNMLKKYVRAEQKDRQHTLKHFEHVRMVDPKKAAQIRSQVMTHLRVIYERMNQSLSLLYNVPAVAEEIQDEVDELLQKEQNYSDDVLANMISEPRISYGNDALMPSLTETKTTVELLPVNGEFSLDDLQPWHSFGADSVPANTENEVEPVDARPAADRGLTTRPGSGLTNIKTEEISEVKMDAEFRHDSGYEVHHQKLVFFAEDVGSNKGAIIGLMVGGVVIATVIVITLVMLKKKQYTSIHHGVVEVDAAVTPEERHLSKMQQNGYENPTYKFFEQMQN
UniProt P78536: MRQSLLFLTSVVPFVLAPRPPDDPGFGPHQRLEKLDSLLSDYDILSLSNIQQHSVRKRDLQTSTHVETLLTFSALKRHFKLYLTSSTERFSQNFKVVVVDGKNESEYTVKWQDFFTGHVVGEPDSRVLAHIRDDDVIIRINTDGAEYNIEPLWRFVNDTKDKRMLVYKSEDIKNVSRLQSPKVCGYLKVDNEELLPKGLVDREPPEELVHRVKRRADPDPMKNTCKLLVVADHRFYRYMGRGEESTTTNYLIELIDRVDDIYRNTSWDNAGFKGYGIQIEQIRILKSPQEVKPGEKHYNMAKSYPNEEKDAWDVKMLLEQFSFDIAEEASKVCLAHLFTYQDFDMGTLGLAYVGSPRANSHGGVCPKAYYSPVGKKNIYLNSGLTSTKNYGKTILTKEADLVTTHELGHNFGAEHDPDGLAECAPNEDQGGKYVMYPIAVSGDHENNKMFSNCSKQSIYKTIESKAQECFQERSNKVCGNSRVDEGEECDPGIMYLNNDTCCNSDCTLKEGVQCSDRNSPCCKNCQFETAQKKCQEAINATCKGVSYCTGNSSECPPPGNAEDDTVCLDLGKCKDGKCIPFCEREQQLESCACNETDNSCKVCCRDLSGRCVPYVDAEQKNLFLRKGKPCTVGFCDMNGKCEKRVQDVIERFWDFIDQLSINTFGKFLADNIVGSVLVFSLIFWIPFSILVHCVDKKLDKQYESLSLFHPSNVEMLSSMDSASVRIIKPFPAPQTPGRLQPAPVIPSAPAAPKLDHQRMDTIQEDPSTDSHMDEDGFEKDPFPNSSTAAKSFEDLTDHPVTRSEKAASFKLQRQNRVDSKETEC
UniProt P18850: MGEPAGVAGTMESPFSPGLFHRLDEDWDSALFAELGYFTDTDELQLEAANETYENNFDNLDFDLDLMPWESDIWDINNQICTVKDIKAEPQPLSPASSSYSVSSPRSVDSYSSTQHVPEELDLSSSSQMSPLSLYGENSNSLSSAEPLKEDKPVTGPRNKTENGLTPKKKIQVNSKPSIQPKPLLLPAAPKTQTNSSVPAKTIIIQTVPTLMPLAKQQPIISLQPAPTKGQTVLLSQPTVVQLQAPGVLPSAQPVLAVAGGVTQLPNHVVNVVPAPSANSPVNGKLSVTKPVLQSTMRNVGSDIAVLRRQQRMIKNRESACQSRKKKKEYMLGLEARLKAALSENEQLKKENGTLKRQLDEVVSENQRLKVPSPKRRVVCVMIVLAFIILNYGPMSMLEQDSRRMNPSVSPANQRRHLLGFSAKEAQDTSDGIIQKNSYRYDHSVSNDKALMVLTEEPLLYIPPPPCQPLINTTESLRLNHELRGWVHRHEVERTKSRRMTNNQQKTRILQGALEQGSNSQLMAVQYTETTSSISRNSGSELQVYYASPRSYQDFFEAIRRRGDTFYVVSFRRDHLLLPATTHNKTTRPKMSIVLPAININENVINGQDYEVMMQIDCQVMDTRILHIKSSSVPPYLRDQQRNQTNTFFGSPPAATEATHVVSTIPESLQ
UniProt P99999: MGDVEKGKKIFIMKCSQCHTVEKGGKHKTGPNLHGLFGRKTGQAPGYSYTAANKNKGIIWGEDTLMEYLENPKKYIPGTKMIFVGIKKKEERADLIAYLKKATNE
UniProt Q9NZJ5, residues 30-1116: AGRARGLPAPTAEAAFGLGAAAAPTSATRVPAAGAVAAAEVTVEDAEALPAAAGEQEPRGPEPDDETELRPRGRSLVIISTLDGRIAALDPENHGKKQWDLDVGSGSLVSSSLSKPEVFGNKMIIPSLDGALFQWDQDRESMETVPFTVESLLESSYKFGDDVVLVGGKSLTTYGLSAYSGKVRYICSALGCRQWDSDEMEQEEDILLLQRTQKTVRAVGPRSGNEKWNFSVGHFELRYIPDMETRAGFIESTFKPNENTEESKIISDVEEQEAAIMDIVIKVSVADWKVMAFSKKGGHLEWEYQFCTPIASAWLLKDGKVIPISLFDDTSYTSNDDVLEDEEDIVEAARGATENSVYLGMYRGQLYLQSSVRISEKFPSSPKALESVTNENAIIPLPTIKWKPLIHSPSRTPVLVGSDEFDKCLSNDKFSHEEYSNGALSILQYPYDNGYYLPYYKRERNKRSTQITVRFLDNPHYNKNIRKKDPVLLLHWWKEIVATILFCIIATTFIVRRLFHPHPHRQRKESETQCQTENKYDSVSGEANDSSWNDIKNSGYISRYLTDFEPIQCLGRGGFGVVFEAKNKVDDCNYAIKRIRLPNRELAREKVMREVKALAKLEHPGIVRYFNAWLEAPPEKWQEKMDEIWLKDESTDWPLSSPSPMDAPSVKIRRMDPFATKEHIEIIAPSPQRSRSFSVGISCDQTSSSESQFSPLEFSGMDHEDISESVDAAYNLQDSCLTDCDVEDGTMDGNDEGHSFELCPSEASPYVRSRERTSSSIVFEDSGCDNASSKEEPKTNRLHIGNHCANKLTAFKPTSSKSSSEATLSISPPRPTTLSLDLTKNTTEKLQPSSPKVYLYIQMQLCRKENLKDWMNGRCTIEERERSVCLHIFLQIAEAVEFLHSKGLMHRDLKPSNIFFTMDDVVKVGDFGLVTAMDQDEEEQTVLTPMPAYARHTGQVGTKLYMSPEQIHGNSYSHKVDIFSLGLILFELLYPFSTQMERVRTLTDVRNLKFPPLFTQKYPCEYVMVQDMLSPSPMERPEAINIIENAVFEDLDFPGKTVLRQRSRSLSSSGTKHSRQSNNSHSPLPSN
UniProt O95197: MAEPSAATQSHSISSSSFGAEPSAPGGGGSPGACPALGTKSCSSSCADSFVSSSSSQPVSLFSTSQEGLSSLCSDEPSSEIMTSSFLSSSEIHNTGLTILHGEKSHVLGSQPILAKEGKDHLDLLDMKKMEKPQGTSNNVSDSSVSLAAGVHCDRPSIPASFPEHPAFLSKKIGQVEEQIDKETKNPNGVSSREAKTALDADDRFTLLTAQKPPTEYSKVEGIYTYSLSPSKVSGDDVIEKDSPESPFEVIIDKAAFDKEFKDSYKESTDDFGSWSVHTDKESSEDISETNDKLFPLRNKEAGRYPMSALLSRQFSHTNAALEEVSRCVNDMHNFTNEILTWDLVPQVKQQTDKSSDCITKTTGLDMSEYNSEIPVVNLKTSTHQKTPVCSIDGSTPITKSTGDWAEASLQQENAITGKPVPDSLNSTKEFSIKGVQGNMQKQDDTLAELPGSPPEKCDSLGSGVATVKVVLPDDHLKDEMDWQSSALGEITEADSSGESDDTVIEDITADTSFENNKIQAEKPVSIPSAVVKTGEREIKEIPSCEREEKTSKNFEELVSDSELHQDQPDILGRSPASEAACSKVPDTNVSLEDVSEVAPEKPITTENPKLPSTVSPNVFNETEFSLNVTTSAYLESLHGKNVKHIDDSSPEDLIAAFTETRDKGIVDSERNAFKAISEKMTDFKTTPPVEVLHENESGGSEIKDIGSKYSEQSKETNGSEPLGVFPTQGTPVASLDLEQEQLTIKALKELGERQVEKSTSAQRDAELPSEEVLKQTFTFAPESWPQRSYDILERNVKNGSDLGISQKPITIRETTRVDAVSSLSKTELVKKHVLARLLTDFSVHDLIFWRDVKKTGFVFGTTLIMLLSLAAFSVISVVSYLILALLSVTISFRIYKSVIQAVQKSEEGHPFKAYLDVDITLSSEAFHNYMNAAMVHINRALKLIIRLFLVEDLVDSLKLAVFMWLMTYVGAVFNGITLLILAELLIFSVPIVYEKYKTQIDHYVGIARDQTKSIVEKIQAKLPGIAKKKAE
UniProt P47985: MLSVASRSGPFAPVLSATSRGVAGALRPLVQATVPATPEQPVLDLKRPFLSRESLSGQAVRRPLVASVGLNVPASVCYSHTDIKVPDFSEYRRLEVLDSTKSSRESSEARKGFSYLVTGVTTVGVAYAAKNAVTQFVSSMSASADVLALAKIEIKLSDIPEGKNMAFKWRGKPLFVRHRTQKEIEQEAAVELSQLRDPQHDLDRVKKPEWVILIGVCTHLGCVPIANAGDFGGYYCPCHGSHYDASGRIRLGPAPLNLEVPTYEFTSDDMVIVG

T1: METTL7B-BirA fusion protein (human) (UniProt Q6UX53)
T1 sequence: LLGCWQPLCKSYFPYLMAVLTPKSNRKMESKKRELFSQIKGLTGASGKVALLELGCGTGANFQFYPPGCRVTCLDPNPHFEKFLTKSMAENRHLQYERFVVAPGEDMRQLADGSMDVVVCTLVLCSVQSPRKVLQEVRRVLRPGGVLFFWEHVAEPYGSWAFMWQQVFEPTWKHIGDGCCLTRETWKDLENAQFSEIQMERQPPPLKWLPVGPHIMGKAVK

B1: APBB1 (protein, UniProt O00213 1-710)
chain: MSVPSSLSQSAINANSHGGPALSLPLPLHAAHNQLLNAKLQATAVGPKDLRSAMGEGGGPEPGPANAKWLKEGQNQLRRAATAHRDQNRNVTLTLAEEASQEPEMAPLGPKGLIHLYSELELSAHNAANRGLRGPGLIISTQEQGPDEGEEKAAGEAEEEEEDDDDEEEEEDLSSPPGLPEPLESVEAPPRPQALTDGPREHSKSASLLFGMRNSAASDEDSSWATLSQGSPSYGSPEDTDSFWNPNAFETDSDLPAGWMRVQDTSGTYYWHIPTGTTQWEPPGRASPSQGSSPQEESQLTWTGFAHGEGFEDGEFWKDEPSDEAPMELGLKEPEEGTLTFPAQSLSPEPLPQEEEKLPPRNTNPGIKCFAVRSLGWVEMTEEELAPGRSSVAVNNCIRQLSYHKNNLHDPMSGGWGEGKDLLLQLEDETLKLVEPQSQALLHAQPIISIRVWGVGRDSGRERDFAYVARDKLTQMLKCHVFRCEAPAKNIATSLHEICSKIMAERRNARCLVNGLSLDHSKLVDVPFQVEFPAPKNELVQKFQVYYLGNVPVAKPVGVDVINGALESVLSSSSREQWTPSHVSVAPATLTILHQQTEAVLGECRVRFLSFLAVGRDVHTFAFIMAAGPASFCCHMFWCEPNAASLSEAVQAACMLRYQKCLDARSQASTSCLPAPPAESVARRVGWTVRRGVQSLWGSLKPKRLGAHTP

The molecules below were run against T1, METTL7B-BirA fusion protein (human) (assay: proximity labelling).

| binding | Molecule |
| --- | --- |
| binds | LRP1 (from UniProt Q07954) |
| binds | amyloid precursor protein (from UniProt P05067 18-770) |

Molecular target: T1, METTL7B-BirA fusion protein (human)
Experiment: proximity labelling
Remark: another data set of the same source

| binding | Molecule |
| --- | --- |
| binds | ADAM17 (from UniProt P78536) |
| binds | ATF6 (from UniProt P18850 1-670) |
| binds | ATP5B (from UniProt P06576 48-529) |
| binds | CDK5 (from UniProt Q00535 1-292) |
| binds | CYCS (from UniProt P99999 1-105) |
| binds | EIF2AK3 (from UniProt Q9NZJ5 30-1116) |
| binds | ITPR2 (from UniProt Q14571 1-2701) |
| binds | LRP1 (from UniProt Q07954) |
| binds | RTN3 (from UniProt O95197 1-1032) |
| binds | UQCRFS1 (from UniProt P47985) |
| binds | amyloid precursor protein (from UniProt P05067 18-770) |
| binds | B1 |

No constants are given. Whether binding was seen depends on the method and setting. In cells and extracts the contact can be indirect. These calls come from enrichment with a bait or labelling near it, and not all partners need be listed. Sequences can lack the tags named with a protein.
